Test results as given in paper PMC7043210, “Differential activation of G protein‐mediated signaling by synthetic cannabinoid receptor agonists” (Pharmacology Research & Perspectives, 2020).
For part of its entries the source gives two or more results. Only these are listed. The source may hold further records. Values that stand side by side differ, and nothing given here explains why; they may come from other doses, times, organisms or constructs than stated.

Chains of the proteins cited; added tags and fusions are not shown.
UniProt P21554, whole entry: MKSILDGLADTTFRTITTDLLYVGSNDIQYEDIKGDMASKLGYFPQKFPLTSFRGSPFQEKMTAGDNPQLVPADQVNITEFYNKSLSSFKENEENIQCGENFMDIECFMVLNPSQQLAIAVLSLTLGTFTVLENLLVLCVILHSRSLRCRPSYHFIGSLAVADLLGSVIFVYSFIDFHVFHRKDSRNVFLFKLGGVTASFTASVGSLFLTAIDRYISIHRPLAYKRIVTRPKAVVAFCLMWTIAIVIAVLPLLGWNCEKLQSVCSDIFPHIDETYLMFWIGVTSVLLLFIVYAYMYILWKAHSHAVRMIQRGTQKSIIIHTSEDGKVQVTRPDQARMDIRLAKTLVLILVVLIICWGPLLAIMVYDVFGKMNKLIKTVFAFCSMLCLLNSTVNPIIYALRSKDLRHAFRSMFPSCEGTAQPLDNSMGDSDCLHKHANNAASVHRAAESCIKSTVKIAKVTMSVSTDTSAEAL

Biological target: human CB1 receptor (Homo sapiens, UniProt P21554)
Assay: Inhibition of FSK-induced cAMP accumulation (Gαi/o, non-PTX treated), CAMYEL BRET biosensor, HEK-CB1 cells
Type: cell-based
Details: ratio of G s (+PTX) EC50 to G i (−PTX) EC50; three parameter fit

Question: For CC(C)C(NC(=O)c1nn(Cc2ccc(F)cc2)c2ccccc12)C(N)=O (stereo not shown), which “G i (−PTX) selectivity” value is on record?
Answer: Its value is “roughly 300 and 290”.
